In PubChem BioAssay AID493014 (National Center for Advancing Translational Sciences (NCATS), 2011):
Some of the results follow. Further columns of the screen follow, without active or inactive calls. Most of these compounds were active or inconclusive in the main read-out, so they are no random draw. The note in brackets gives the kind of curve behind each potency; many fits are weak.

Assay: qHTS Assay to Find Inhibitors of Chronic Active B-Cell Receptor Signaling
Settings: ABC-DLBCL IkBa-CBG/CBR reporter, luminescence ratio (green luciferase fused to IkBa over red control in TMD8 lymphoma cells), 4 h
How it was run: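 TMD8 human ABC-DLBCL cells with doxycycline-inducible IκBα–green luciferase fusion and unfused red luciferase, in 0.5% FBS medium; compounds up to 46 uM, 4 h at 37C. Green/red luminescence ratio, filter-overlap corrected, fitted to concentration-response curves.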

[1] = measured here: CBR red luminescence, cell number
[2] = measured here: IkBa-CBG green luminescence

Compound | AC50 [1] | AC50 [2]
Cc1c(CCOC(=O)C23CC4(C)CC(C)(CC(C)(C4)C2)C3)sc[n+]1CC(=O)c1ccccc1 | 14.1 µM [falling, single point] | 
O=C(NC1(C(F)(F)F)C(=O)Nc2c1c(=O)[nH]c(=O)n2Cc1ccccc1)c1ccco1 (stereo not drawn) | 0.562 µM [falling, partial curve, poor fit] | 
CCOC(=O)c1c(C)[nH]c(C)c1S(=O)(=O)NCC1CCN(Cc2ccccc2F)CC1 | 14.1 µM [rising, partial curve, poor fit] | 
CCOP(=O)(c1ccc(N(C)C)cc1)C(O)c1ccc(C)cc1 (stereo not drawn) | 3.98 µM [rising, full curve, poor fit] | 
CCC1(C)Cc2c(sc3nc(SCC(=O)c4ccccc4)[nH]c(=O)c23)CO1 (stereo not drawn) | 0.398 µM [falling, full curve, poor fit] | 
CCOC(=O)c1ccc2c(c1)nc(-c1ccccn1)n2CC | 20 µM [rising, single point] | 
COc1ccc(OC)c(C(=O)/C=C/c2ccccc2C(F)(F)F)c1 | 11.2 µM [falling, single point] | 
COc1cccc(C(=O)N/N=C/c2ccc(Oc3ccc([N+](=O)[O-])cn3)c(OC)c2)c1 | 6.51 µM [falling, partial curve] | 
O=C(COc1ccccc1-c1ccccc1)N/N=C/c1ccccn1 | 35.5 µM [rising, single point] | 35.5 µM [falling, single point]
CCOc1ccc2nc(NC(=O)C(CC)Sc3nc(C)cc(=O)[nH]3)sc2c1 (stereo not drawn) | 1.16 µM [rising, full curve, poor fit] | 
COCC(=O)n1cc(C(=O)OC)c2ccccc21 | 29.1 µM [rising, single point] | 
COc1ccc(N=C2C(=Nc3ccc(OC)cc3)N(c3ccccc3)C(=S)N2C(=O)c2ccc(Cl)cc2)cc1 | 29.1 µM [falling, single point] | 
CCCc1ccc(-c2cc(NC(=O)CSc3nnc(N)s3)n(-c3ccccc3)n2)cc1 | 5.8 µM [rising, partial curve, poor fit] | 
Fc1ccc(C(c2nnnn2C2CCCCC2)N2CCCC2)cc1 (stereo not drawn) | 20 µM [falling, partial curve, poor fit] | 
COc1cc(OC)cc(C(=O)N[C@H](C(=O)OCC(=O)Nc2ccc(C)cc2C)C(C)C)c1 | 6.51 µM [rising, single point] | 
Cc1nc(N2CCN(c3ccccc3)CC2)[nH]c(=O)c1Cc1cccc2ccccc12 | 25.1 µM [rising, single point] | 
COc1ccc(CNC(=O)CSC(=S)N2CCCC2)cc1 | 2.91 µM [falling, full curve, poor fit] | 
COc1ccccc1CC(=O)Nc1ccc(-c2noc(COc3cccc(C)c3C)n2)cc1 | 5.8 µM [falling, partial curve, poor fit] | 
CCN(C(=O)COC(=O)c1cccnc1SC)C1CCS(=O)(=O)C1 (stereo not drawn) | 14.6 µM [falling, partial curve, poor fit] | 
CN(C)C(=O)c1ccc2c(c1[N+](=O)[O-])C(=O)c1ccccc1C2=O | 0.13 µM [rising, full curve, poor fit] | 
CCC(=O)N1CCc2cc(S(=O)(=O)Nc3ccc4c(c3)OCCO4)ccc21 | 0.58 µM [falling, partial curve, poor fit] | 

Compound | AC50 [1] | AC50 [2]
N#Cc1c(NC(=O)CSc2ncn[nH]2)sc2c1CCCC2 |  | 9.2 µM [falling, partial curve, poor fit]
Cc1nn(-c2ccccc2)c2c1C1(C(=O)N(C)c3ccccc31)N(c1ccccc1)C(=O)N2 (stereo not drawn) | 14.1 µM [falling, partial curve] | 
CCCCCCC(=O)NNC(=O)CC(=O)Nc1ccccc1C(=O)O | 3.26 µM [rising, partial curve, poor fit] | 
Cc1cc(C)cc(NS(=O)(=O)c2ccc3[nH]cc(C(=O)NCc4ccccc4Cl)c(=O)c3c2)c1 | 11.2 µM [falling, partial curve, poor fit] | 
CC(C)(c1ccccc1)c1ccc(OCCCN2CCNCC2)cc1 | 35.5 µM [falling, single point] | 
COc1ccc(-c2nc(S(=O)(=O)c3ccc(C)cc3)c(N3CCCC3)o2)cc1 | 0.651 µM [falling, full curve, poor fit] | 
Cc1ccc(C(F)(F)F)cc1NC(N)=S | 0.891 µM [rising, full curve, poor fit] | 
C/C(=C\c1ccccc1)C(=O)Nc1nc2ccc([N+](=O)[O-])cc2s1 | 0.92 µM [rising, full curve, poor fit] | 
COc1ccc(CNC(=O)CN(C(=O)CCC(=O)Nc2ccccn2)c2cccc(C)c2C)cc1 | 10 µM [falling, partial curve] | 
Cc1ccc(/C=C2/NC(=O)N(Cc3ccccc3F)C2=O)s1 |  | 1.12 µM [rising, full curve, poor fit]
COc1ccc(NC(=S)NN2C(C)CCCC2C)cc1 (stereo not drawn) | 0.00411 µM [falling, full curve, poor fit] | 
COC(=O)C(Cc1ccc(OC(=O)c2ccccc2C)cc1)N1Cc2ccccc2C1=O (stereo not drawn) | 29.1 µM [falling, single point] | 
O=C(O)/C=C\C(=O)Nc1ccccc1C(=O)N1CCN(c2ccc(Cl)cc2)CC1 | 10.3 µM [falling, partial curve, poor fit] | 
CCOCCCNC(=S)NNC(=O)CCn1nc(C)c(Br)c1C | 32.6 µM [falling, single point] | 29.1 µM [falling, single point]
Cc1cc(C(=O)COC(=O)CCCN2C(=O)c3ccccc3C2=O)c(C)n1C | 11.2 µM [rising, partial curve, poor fit] | 
O=C(c1cccs1)n1nc(-c2ccco2)nc1SCc1ccccc1 | 29.1 µM [falling, single point] | 
Cc1cnc(C(=O)Nc2ccc(F)cc2)cn1 | 5.01 µM [falling, partial curve, poor fit] | 
O=C(O)c1ccc(-c2nc(-c3ccccc3)c(-c3cccs3)[nH]2)cc1 | 5.62 µM [falling, partial curve, poor fit] | 
CCOc1cc2c(cc1/C=C(/C#N)c1ccc(C(=O)O)cc1)OCO2 | 11.2 µM [falling, single point] | 
CC(=O)Nc1ccc(S(=O)(=O)N2CCCCC2C(=O)O)cc1 (stereo not drawn) | 14.1 µM [rising, partial curve, poor fit] | 
CC(C)(C)c1ccc(-c2noc(CNC(=O)c3ccco3)n2)cc1 | 8.91 µM [rising, partial curve, poor fit] | 

Compound | AC50 [1] | AC50 [2]
O=C(Nc1cccc(NC(=O)c2cccs2)c1)c1ccc(Br)o1 | 7.08 µM [falling, full curve, poor fit] | 
COc1ccc(NC(=S)N/C(=N/CS(=O)(=O)c2ccccc2)c2ccccc2)cc1 | 29.1 µM [falling, single point] | 
CSc1nc2ccc(NC(=O)c3ccc(=O)[nH]c3)cc2s1 | 3.98 µM [rising, full curve] | 
O=C1CSC2(C(=O)N(Cc3ccccc3)c3ccccc32)N1c1ccc(Cl)cc1 (stereo not drawn) | 11.2 µM [falling, partial curve, poor fit] | 
CCOc1cc(S(=O)(=O)N(CC)CC)ccc1Br | 18.4 µM [rising, single point] | 
Cc1cccn2cc(-c3cccc(S(=O)(=O)N4CCOCC4)c3)nc12 | 11.2 µM [rising, partial curve, poor fit] | 
O=C1N/C(=N/S(=O)(=O)Cc2ccccc2)S/C1=C/c1ccc2c(c1)OCO2 | 8.91 µM [falling, partial curve] | 
COc1cccc(CNC(=O)C(=O)NCC2CCCO2)c1 (stereo not drawn) | 11.6 µM [falling, partial curve] | 
Cc1cccc(-c2nsc(SCC(=O)N3CCCC3)n2)c1 | 0.1 µM [rising, full curve, poor fit] | 
NS(=O)(=O)c1ccc(CCNC(c2ccccc2)c2ccccc2)cc1 | 7.94 µM [falling, partial curve, poor fit] | 
COc1cc(OC)c(NC(=O)CN(C)S(=O)(=O)c2ccc3[nH]c(=O)oc3c2)cc1Cl | 7.94 µM [rising, partial curve, poor fit] | 
CSCCC(NC(=O)c1ccccc1)C(=O)N1CC(C)OC(C)C1 (stereo not drawn) | 20.6 µM [rising, single point] | 
C[C@@]12CCC=C[C@H]1[C@H](c1ccc3ccccc3c1/C=C/c1ccccc1)N(Cc1ccccc1)C2=O | 0.0891 µM [rising, full curve, poor fit] | 
CC(C)(C)NC(=O)/C=C/c1ccc(C(F)(F)F)cc1 | 16.4 µM [rising, partial curve] | 
CN1/C(=C/C(=O)c2nc(S(C)(=O)=O)ncc2Cl)C(C)(C)c2ccccc21 | 20 µM [falling, partial curve, poor fit] | 
N#C/C(=C(/O)CSc1ccccn1)c1nc2ccccc2s1 | 2.24 µM [falling, partial curve] | 
COc1cc(C(=O)OCCNC(=O)c2ccncc2)cc(OC)c1OC | 4.61 µM [rising, single point] | 
Cc1cccc(N2C(=O)CC(Sc3nnc(C)s3)C2=O)c1 (stereo not drawn) | 18.4 µM [falling, single point] | 
O=C(C(Cc1ccccc1)n1cccc1)N1CCN(c2ccccc2)CC1 (stereo not drawn) | 32.6 µM [falling, single point] | 

Pulled by compound from the list above:
Compound | AC50 [1] | AC50 [2]
CSCCC(NC(=O)c1ccccc1)C(=O)N1CC(C)OC(C)C1 (stereo not drawn) | 20.6 µM [rising, single point] | 
C[C@@]12CCC=C[C@H]1[C@H](c1ccc3ccccc3c1/C=C/c1ccccc1)N(Cc1ccccc1)C2=O | 0.0891 µM [rising, full curve, poor fit] | 
CC(C)(C)NC(=O)/C=C/c1ccc(C(F)(F)F)cc1 | 16.4 µM [rising, partial curve] | 
CCOc1cc(S(=O)(=O)N(CC)CC)ccc1Br | 18.4 µM [rising, single point] | 
